PubChem BioAssay AID1053208, Peter MacCallum Cancer Centre | 2014

Screen: 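Synthetic lethal interactions between gene loss and doxorubicin in osteosarcoma cells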 (primary screen)
Cell system: mouse osteosarcoma cells, early-passage culture from an engineered mouse model of fibroblastic bone tumour
Reagents: siRNA pool against mouse genes, 40 nM
Time to read-out: about 120 h (48 h before drug, then 72 h with drug)
Conditions: doxorubicin 100 nM for 72 h, roughly 30-40% inhibitory dose
Measurement: 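Viability read as ATP luminescence after 72 h of 100 nM doxorubicin or none, duplicate wells averaged, scaled to non-targeting siRNA, then expressed as robust z-scores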
Direction: viability z-score with doxorubicin and doxorubicin viability vs non-targeting: higher = more viable cells under doxorubicin; viability z-score without drug: higher = more viable cells with knock-down alone; z-score of drug to no-drug ratio: higher = less drug sensitisation by knock-down
Hit rule: 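a pool counts as active when its viability z-score with doxorubicin is -2 or below and its z-score without drug lies between -2 and 2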
The deposit covers about 17,000 reagents; this is an unselected part. In the full data, 788 (4.7%) were called active. 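Calls rest on z-score classes alone; an extra cut-off of viability at most 70% of control was not applied to them.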 Unmarked entries are inactive. A reagent listed more than once was tested more than once; the source does not tell the runs apart.

gene	PubChem SID	combined z-score class	viability z-score with doxorubicin	viability z-score without drug	z-score of drug to no-drug ratio	doxorubicin viability vs non-targeting
Nedd4 (GeneID 17999)	SID152261038	no change with or without drug	0	-0.84	0.67	0.94
H1f7 (GeneID 70069)	SID152279222	no change with or without drug	-1.35	0.34	-1.46	0.82
Parp9 (GeneID 80285)	SID152340292	no change with or without drug	-0.34	0.84	-0.79	0.91
Map6d1 (GeneID 208158)	SID152335741	no change with or without drug	1.35	0	1.57	1.06
Vmn1r93 (GeneID 404290)	SID152323822	no change with or without drug	-0.79	-0.84	-0.11	0.87
Myo18a (GeneID 360013)	SID152308095	no change with or without drug	1.12	-0.17	1.46	1.04
Ttc8 (GeneID 76260)	SID152326521	no change with or without drug	0.67	0	0.79	1
Pym1 (GeneID 78428)	SID152315681	no change with or without drug	1.35	0.51	1.12	1.06
Mindy3 (GeneID 66960)	SID152307202	no change with or without drug	-1.8	0.51	-2.02	0.78
She (GeneID 214547)	SID152319311	no change with or without drug	-0.79	0.17	-0.79	0.87
Vps26a (GeneID 30930)	SID152263505	no change with or without drug	-0.45	0.84	-0.9	0.9
Comt (GeneID 12846)	SID152279502	no change with or without drug	-0.11	-0.17	0.11	0.93
Wipi1 (GeneID 52639)	SID152266112	no change with or without drug	0.45	1.18	-0.22	0.98
4933421H10RIK	SID152274058	no change with or without drug	-0.67	0.51	-0.9	0.88
Aco2 (GeneID 11429)	SID152334142	no change with or without drug	-0.56	0	-0.45	0.89
Cma2 (GeneID 545055)	SID152278237	no change with or without drug	-0.34	0.84	-0.79	0.91
Cela1 (GeneID 109901)	SID152266129	high without drug; low with doxorubicin	-4.72	2.19	-5.62	0.52
Myh10 (GeneID 77579)	SID152342964	no change with or without drug	-0.45	0.17	-0.45	0.9
Lamtor3 (GeneID 56692)	SID152334254	high cell count without drug only	1.35	2.7	-0.34	1.06
E4f1 (GeneID 13560)	SID152271224	no change with or without drug	-0.22	-1.52	1.01	0.92
Tma16 (GeneID 66282)	SID152260822	no change with or without drug	1.69	0.17	1.8	1.09
Sdcbp2 (GeneID 228765)	SID152276509	high cell count without drug only	1.12	3.04	-0.67	1.04

No new results follow: entries from further up.
gene	PubChem SID	combined z-score class	viability z-score with doxorubicin	viability z-score without drug	z-score of drug to no-drug ratio	doxorubicin viability vs non-targeting
Comt (GeneID 12846)	SID152279502	no change with or without drug	-0.11	-0.17	0.11	0.93
Wipi1 (GeneID 52639)	SID152266112	no change with or without drug	0.45	1.18	-0.22	0.98
4933421H10RIK	SID152274058	no change with or without drug	-0.67	0.51	-0.9	0.88
Aco2 (GeneID 11429)	SID152334142	no change with or without drug	-0.56	0	-0.45	0.89
Cma2 (GeneID 545055)	SID152278237	no change with or without drug	-0.34	0.84	-0.79	0.91
Cela1 (GeneID 109901)	SID152266129	high without drug; low with doxorubicin	-4.72	2.19	-5.62	0.52
Myh10 (GeneID 77579)	SID152342964	no change with or without drug	-0.45	0.17	-0.45	0.9

Further results follow:
gene	PubChem SID	combined z-score class	viability z-score with doxorubicin	viability z-score without drug	z-score of drug to no-drug ratio	doxorubicin viability vs non-targeting
Csrnp2 (GeneID 207785)	SID152337382	no change with or without drug	0.34	-0.17	0.56	0.97
Slc43a2 (GeneID 215113)	SID152307345	no change with or without drug	0.9	-0.67	1.57	1.02
Fxyd5 (GeneID 18301)	SID152269228	no change with or without drug	-1.24	0.67	-1.57	0.83
Cinp (GeneID 67236)	SID152342003	no change with or without drug	-1.12	-0.84	-0.56	0.84
Cinp (GeneID 67236)	SID152342003	no change with or without drug	0.22	-0.17	0.45	0.96
Arhgef4 (GeneID 226970)	SID152271860	no change with or without drug	-1.24	-1.52	-0.11	0.83
Mtfr1l (GeneID 76824)	SID152342980	no change with or without drug	1.24	1.52	0.34	1.05
Tbx4 (GeneID 21387)	SID152305772	no change with or without drug	-0.45	0.34	-0.56	0.9
Cntnap5b (GeneID 241175)	SID152326068	no change with or without drug	0.45	0.67	0.11	0.98
Entpd7 (GeneID 93685)	SID152322240	no change with or without drug	0.67	0.51	0.45	1
Stk35 (GeneID 67333)	SID152336677	no change with or without drug	0.67	1.35	-0.11	1
Stk35 (GeneID 67333)	SID152336677	no change with or without drug	-0.22	-1.18	0.79	0.92
Id1 (GeneID 15901)	SID152297260	no change with or without drug	-1.12	-0.51	-0.79	0.84
Edrf1 (GeneID 214764)	SID152305589	no change with or without drug	0.79	1.18	0.11	1.01
Nt5dc3 (GeneID 103466)	SID152307138	high cell count with doxorubicin only	2.02	1.18	1.35	1.12
Zbtb8a (GeneID 73680)	SID152328508	no change with or without drug	0.45	-0.51	1.01	0.98
Ctnnd2 (GeneID 18163)	SID152337219	no change with or without drug	1.35	0.17	1.35	1.06
Or5p67 (GeneID 258490)	SID152324846	no change with or without drug	0.79	-0.84	1.57	1.01
Flot1 (GeneID 14251)	SID152275378	no change with or without drug	-0.45	0.34	-0.56	0.9
Uchl4 (GeneID 93841)	SID152303499	no change with or without drug	1.12	-0.17	1.46	1.04
Cux2 (GeneID 13048)	SID152298939	no change with or without drug	0.45	0.51	0.22	0.98
Sytl5 (GeneID 236643)	SID152306410	no change with or without drug	-1.57	-0.17	-1.46	0.8
Pum1 (GeneID 80912)	SID152261984	no change with or without drug	-0.11	0.84	-0.56	0.93
Npepps (GeneID 19155)	SID152262843	no change with or without drug	-0.45	-0.34	-0.11	0.9
Or1e21 (GeneID 259027)	SID152284707	no change with or without drug	-0.45	1.18	-1.12	0.9
Gypa (GeneID 14934)	SID152311015	no change with or without drug	-0.22	0.17	-0.22	0.92
Gzmb (GeneID 14939)	SID152292590	no change with or without drug	1.35	1.85	0.22	1.06
Colec10 (GeneID 239447)	SID152316448	no change with or without drug	0.9	-0.17	1.24	1.02
